{"sequences": {"note": "Amino acid sequences for entries named in this document (tags omitted).", "UniProt Q5DTM8": "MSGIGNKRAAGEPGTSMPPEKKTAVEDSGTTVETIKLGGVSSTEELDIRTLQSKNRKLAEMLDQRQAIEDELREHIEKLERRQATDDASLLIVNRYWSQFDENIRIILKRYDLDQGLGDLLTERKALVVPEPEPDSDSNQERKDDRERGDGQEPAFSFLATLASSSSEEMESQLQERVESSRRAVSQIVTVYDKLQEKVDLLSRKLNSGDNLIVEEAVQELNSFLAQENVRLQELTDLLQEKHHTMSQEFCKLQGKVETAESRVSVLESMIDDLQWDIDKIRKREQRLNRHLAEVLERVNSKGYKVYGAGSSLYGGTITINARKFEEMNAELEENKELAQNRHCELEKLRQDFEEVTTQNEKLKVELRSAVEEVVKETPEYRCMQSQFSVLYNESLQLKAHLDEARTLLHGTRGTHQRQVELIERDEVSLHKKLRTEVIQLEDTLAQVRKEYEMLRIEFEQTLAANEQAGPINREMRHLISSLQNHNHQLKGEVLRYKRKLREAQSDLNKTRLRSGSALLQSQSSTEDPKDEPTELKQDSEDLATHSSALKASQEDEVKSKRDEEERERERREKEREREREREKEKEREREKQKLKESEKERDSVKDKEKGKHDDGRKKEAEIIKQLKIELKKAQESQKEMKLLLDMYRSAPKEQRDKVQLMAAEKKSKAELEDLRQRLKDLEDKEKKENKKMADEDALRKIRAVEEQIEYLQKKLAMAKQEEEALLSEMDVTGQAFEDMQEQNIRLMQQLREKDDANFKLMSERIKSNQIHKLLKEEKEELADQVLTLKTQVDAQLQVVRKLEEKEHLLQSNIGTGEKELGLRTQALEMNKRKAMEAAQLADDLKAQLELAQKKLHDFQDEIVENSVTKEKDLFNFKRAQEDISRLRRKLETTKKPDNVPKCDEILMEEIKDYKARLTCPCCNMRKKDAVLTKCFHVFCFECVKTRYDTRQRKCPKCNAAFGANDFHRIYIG"}, "source": "paper PMC10831072", "biological_target": "T1, guanine and adenine-binding protein alpha (GABPα) (mouse (endogenous in BAT)) (UniProt Q00422)", "T1 sequence": "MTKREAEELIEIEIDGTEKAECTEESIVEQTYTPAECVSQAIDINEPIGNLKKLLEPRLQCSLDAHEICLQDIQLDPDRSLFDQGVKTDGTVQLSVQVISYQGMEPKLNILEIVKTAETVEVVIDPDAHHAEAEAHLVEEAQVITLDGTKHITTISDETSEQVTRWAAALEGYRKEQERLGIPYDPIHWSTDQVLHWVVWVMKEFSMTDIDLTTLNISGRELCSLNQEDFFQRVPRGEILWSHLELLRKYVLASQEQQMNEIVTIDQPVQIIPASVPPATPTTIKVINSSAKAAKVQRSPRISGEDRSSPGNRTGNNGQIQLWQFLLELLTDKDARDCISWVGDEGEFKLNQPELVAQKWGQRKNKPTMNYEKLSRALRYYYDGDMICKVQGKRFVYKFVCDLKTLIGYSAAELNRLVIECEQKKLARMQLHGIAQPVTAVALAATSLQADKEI", "assay": "co-IP; endogenous co-immunoprecipitation using GABPα antibody in BAT; RIPA lysate (150 mM NaCl, 50 mM Tris-HCl pH 7.4, 1% NP-40, 0.25% sodium deoxycholate, 1 mM EDTA, MG132), 1 mg lysate, antibody overnight at 4 °C, Protein A-Sepharose, western blot", "note": "No constants are given. Whether binding was seen depends on the method and setting. Binding seen in cells or lysates may run through a third protein. Some results given as binding are weak or reduced against the parent protein; the word gives no strength."}
{"substance": "E3 ubiquitin ligase ring finger protein 20 (RNF20) (from UniProt Q5DTM8 1-973) (enzyme)", "values": [{"measurement": "binding", "result": "binds"}]}
